These are yes or no findings as the source states them, for the method shown. In cells and extracts the contact can be indirect. Some results given as binding are weak or reduced against the parent protein; the word gives no strength.

Amino acid sequences for entries named in this document (tags omitted). A change or cut given only in a name is not applied to a line headed by its entry. Chains listed by the source or under a name are the forms on record and can include a tag or linker. Residues count along the entry.
NR2E3 p.Q350X (Q9Y5X4, residues 1-349): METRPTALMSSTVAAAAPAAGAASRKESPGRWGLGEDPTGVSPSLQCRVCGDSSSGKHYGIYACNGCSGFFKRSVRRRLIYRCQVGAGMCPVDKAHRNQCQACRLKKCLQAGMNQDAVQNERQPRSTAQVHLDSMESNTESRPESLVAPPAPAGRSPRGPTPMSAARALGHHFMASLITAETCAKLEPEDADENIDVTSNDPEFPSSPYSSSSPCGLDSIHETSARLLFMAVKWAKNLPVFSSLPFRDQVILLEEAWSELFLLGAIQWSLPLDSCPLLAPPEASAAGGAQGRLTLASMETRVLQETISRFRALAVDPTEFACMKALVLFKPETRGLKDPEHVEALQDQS
NR2E3 p.A256E (Q9Y5X4-1, form named): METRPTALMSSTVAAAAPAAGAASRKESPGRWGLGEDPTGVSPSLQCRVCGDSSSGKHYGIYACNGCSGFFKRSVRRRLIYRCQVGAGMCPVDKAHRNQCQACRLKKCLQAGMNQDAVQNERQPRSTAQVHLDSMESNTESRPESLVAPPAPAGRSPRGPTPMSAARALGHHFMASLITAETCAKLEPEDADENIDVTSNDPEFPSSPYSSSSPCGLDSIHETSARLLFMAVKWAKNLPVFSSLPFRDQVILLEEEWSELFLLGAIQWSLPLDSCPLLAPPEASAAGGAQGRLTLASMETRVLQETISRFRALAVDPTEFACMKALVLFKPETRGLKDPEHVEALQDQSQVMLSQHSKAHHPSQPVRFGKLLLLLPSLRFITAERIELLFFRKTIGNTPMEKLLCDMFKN
NR2E3 p.E121K (Q9Y5X4-1, form named): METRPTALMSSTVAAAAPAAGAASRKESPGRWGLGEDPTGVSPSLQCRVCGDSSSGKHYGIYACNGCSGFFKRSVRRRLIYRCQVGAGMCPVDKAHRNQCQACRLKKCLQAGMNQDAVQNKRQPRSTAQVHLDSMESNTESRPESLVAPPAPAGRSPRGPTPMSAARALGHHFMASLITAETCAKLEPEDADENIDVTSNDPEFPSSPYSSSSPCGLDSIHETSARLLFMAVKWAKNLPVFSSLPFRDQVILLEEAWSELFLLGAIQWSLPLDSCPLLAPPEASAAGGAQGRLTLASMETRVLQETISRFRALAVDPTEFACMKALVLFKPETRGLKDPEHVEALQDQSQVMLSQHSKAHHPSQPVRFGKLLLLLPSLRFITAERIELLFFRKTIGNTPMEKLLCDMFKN
NR2E3 p.G56R (Q9Y5X4-1, form named): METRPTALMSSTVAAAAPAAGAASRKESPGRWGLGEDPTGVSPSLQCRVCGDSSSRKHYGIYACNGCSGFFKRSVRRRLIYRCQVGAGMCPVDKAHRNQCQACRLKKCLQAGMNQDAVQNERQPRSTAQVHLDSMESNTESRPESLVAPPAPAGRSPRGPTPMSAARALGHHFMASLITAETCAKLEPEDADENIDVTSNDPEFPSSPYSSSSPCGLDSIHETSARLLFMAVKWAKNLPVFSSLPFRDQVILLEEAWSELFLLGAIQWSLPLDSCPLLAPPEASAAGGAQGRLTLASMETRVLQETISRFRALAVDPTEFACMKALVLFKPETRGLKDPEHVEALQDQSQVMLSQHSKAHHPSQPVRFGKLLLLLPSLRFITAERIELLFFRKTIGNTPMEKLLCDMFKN
NR2E3 p.G88V (Q9Y5X4-1, form named): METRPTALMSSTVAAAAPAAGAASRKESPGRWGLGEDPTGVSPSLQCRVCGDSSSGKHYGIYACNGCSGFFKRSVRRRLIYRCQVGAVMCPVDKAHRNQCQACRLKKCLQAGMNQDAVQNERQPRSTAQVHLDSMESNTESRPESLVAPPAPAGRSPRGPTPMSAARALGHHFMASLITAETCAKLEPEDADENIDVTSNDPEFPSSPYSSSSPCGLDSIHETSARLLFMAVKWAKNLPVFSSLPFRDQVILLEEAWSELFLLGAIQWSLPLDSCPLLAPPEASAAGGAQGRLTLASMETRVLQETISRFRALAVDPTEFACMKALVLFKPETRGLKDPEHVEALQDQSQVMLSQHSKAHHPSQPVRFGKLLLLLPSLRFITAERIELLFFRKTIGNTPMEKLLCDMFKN
NR2E3 p.L263P (Q9Y5X4-1, form named): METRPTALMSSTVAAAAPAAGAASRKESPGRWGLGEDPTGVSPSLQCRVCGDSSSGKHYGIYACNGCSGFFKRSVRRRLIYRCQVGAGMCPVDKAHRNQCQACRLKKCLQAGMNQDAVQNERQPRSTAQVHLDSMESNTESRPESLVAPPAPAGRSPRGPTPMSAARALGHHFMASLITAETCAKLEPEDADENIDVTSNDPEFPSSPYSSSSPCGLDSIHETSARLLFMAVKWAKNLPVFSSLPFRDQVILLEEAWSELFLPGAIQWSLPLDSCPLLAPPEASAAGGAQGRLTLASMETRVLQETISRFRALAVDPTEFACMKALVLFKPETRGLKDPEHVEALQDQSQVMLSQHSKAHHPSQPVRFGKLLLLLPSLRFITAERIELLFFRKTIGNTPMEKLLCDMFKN
NR2E3 p.L336P (Q9Y5X4-1, form named): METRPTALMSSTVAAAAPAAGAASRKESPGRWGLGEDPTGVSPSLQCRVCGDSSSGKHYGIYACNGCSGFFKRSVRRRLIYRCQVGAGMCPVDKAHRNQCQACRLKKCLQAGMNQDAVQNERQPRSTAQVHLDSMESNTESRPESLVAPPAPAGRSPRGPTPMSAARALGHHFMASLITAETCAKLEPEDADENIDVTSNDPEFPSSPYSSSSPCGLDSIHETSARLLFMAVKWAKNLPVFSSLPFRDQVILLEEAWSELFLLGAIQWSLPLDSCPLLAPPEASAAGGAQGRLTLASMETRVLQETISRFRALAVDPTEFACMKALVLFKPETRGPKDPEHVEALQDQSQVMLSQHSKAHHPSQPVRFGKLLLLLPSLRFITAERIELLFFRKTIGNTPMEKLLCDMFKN
NR2E3 p.L353V (Q9Y5X4-1, form named): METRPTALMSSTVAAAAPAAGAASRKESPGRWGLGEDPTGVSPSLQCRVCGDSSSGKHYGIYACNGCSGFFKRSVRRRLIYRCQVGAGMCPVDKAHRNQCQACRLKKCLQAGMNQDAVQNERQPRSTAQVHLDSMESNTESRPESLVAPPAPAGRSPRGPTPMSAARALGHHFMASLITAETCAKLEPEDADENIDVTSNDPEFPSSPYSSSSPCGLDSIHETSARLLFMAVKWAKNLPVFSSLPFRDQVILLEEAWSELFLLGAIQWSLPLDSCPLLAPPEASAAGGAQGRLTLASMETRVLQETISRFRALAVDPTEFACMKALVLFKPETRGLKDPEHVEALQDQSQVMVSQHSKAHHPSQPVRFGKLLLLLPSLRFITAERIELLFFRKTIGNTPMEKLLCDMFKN
NR2E3 p.M407K (Q9Y5X4-1, form named): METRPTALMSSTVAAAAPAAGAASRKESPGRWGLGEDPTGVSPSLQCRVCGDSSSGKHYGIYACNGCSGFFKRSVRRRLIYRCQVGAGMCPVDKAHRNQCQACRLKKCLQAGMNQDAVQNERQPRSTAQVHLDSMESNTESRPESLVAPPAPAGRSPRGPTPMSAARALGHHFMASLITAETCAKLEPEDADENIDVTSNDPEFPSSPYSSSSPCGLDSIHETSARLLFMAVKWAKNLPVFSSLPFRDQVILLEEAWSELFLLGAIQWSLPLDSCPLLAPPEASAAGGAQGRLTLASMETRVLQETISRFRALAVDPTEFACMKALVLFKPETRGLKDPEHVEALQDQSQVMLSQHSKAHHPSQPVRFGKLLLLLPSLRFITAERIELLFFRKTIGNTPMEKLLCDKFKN
NR2E3 p.N65_C67del (Q9Y5X4-1, form named): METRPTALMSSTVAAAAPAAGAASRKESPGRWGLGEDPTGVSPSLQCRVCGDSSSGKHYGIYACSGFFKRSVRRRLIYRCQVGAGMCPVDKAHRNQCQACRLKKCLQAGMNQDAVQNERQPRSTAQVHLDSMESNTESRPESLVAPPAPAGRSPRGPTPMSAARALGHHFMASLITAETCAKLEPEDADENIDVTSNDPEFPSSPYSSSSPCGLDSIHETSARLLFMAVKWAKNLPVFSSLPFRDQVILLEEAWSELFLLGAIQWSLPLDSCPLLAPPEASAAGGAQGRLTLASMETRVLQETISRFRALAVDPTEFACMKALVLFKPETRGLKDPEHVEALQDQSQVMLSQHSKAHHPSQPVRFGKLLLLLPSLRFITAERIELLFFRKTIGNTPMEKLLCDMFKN
NR2E3 p.R76Q (Q9Y5X4-1, form named): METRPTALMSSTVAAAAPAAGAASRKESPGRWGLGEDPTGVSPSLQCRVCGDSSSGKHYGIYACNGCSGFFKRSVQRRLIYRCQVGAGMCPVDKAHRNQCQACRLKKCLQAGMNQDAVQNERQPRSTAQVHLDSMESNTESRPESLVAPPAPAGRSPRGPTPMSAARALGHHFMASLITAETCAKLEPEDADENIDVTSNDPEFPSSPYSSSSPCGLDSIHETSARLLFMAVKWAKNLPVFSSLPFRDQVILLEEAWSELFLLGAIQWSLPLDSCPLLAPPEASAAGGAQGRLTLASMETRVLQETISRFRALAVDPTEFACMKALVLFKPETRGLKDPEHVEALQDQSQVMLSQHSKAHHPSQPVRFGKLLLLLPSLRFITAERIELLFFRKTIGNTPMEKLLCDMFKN
NR2E3 p.R76W (Q9Y5X4-1, form named): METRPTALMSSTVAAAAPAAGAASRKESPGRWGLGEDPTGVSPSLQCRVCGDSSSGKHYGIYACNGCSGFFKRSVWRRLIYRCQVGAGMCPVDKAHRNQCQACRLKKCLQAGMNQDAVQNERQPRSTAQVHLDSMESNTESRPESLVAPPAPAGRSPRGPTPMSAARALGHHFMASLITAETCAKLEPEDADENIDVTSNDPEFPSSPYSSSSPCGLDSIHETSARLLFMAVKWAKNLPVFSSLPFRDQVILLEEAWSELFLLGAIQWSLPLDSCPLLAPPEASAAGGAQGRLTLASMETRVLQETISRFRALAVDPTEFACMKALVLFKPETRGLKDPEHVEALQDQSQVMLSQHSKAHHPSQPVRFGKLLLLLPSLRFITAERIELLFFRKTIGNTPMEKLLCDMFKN
NR2E3 p.R97H (Q9Y5X4-1, form named): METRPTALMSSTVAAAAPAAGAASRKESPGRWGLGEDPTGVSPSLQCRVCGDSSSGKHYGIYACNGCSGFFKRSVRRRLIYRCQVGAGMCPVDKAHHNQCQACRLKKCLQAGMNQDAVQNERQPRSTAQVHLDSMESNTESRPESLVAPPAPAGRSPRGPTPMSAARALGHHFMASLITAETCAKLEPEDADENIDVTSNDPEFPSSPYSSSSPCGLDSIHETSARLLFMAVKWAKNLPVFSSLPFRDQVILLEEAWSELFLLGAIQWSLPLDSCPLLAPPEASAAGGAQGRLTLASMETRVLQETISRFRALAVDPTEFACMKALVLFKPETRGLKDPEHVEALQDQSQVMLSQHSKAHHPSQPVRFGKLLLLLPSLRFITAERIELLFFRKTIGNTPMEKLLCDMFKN
NR2E3 p.R104Q (Q9Y5X4-1, form named): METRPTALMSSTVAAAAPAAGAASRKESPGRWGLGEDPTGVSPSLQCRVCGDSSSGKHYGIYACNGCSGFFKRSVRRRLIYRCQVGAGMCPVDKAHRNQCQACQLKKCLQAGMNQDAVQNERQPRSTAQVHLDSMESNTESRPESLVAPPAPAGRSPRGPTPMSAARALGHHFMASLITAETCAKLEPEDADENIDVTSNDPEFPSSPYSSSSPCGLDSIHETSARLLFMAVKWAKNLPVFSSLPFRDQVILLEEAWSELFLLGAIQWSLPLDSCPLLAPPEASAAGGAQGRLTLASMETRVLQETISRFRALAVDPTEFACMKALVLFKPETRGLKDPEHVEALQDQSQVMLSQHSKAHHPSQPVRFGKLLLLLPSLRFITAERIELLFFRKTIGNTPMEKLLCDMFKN
NR2E3 p.R309G (Q9Y5X4-1, form named): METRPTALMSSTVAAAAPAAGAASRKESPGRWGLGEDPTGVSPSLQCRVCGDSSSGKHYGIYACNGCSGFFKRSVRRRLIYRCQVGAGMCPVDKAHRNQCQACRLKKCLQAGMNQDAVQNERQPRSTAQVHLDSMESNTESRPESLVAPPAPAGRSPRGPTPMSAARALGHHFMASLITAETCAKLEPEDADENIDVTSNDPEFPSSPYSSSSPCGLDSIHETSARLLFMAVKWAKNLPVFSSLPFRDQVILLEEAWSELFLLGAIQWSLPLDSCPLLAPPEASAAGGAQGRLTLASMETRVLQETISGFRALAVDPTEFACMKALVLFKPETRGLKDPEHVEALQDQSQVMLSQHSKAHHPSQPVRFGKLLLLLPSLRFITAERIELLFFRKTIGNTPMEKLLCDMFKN
NR2E3 p.R311Q (Q9Y5X4-1, form named): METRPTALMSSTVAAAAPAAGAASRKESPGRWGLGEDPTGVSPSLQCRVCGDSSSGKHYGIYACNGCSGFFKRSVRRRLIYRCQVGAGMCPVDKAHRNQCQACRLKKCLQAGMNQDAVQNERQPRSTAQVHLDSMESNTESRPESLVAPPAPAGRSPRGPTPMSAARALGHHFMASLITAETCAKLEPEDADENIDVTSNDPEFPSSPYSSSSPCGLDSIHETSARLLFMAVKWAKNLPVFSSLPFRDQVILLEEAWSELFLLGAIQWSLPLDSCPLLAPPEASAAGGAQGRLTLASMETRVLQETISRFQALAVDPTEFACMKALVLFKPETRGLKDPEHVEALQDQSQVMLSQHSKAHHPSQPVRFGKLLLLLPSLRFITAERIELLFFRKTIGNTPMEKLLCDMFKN

Binding data for 22 substances are collected here from PMC2773741.

The target in experiment [1] is neural retina leucine zipper (NRL), V5-tagged (UniProt P54845). The experiment can be described thus: co-IP; COS-1 cells cotransfected with Xpress-tagged WT or mutant NR2E3 and pED-NRL-V5 or -CRX-V5; sonicated cell extracts in 1x PBS with protease inhibitors; Protein-G beads and goat anti-V5 antibody overnight at 4 °C; beads washed with 1x PBS, 1% Triton X-100; NR2E3 detected with mouse anti-Xpress antibody.

Experiment [2] addresses cone-rod homeobox (CRX), V5-tagged (UniProt O43186). Described as above.

Take “NR2E3 p.A256E (from UniProt Q9Y5X4-1 1-410)”: the binding result in experiment [1] and in experiment [2] was “binds” throughout.
As to “NR2E3 p.E121K (from UniProt Q9Y5X4-1 1-410)”, the binding result in experiment [1] and in experiment [2] was “binds” throughout.
As to “NR2E3 p.G56R (from UniProt Q9Y5X4-1 1-410)”, the binding entry in experiment [1] and in experiment [2] was “binds” throughout.
As for “NR2E3 p.G88V (from UniProt Q9Y5X4-1 1-410)”, the binding result in experiment [1] and in experiment [2] was “binds” each time.
In the case of “NR2E3 p.L263P (from UniProt Q9Y5X4-1 1-410)”, the binding result in experiment [1] and in experiment [2] was “binds” each time.
“NR2E3 p.L336P (from UniProt Q9Y5X4-1 1-410)”: the binding entry in experiment [2] is “binds”.
Still for that read-out and setting: the value for “NR2E3 p.L353V (from UniProt Q9Y5X4-1 1-410)” was “binds”.
As for “NR2E3 p.M407K (from UniProt Q9Y5X4-1 1-410)”, the binding result in experiment [1] and in experiment [2] was “binds” throughout.
As to “NR2E3 p.N65_C67del (from UniProt Q9Y5X4-1 1-410)”, the binding result in experiment [1] and in experiment [2] was “binds” throughout.
Turning to “NR2E3 p.Q350X (from UniProt Q9Y5X4-1 1-349)”, the binding result in experiment [1] and in experiment [2] was “binds” throughout.
For “NR2E3 p.R76Q (from UniProt Q9Y5X4-1 1-410)”, the binding entry in experiment [1] is given as “binds”.
On the same count and under the same terms, the value for “NR2E3 p.R76W (from UniProt Q9Y5X4-1 1-410)” was “binds”; that for “NR2E3 p.R97H (from UniProt Q9Y5X4-1 1-410)” was “binds”.
Regarding “NR2E3 p.R104Q (from UniProt Q9Y5X4-1 1-410)”, the binding result in experiment [1] is on record as “binds”.
On to “NR2E3 p.R309G (from UniProt Q9Y5X4-1 1-410)”, for which the binding result in experiment [1] and in experiment [2] was “binds” each time.
“NR2E3 p.R311Q (from UniProt Q9Y5X4-1 1-410)”: the binding result in experiment [1] and in experiment [2] was “binds” in each case.
Turning to “NR2E3 p.R334G (from UniProt Q9Y5X4-1 1-410)”, the binding entry in experiment [1] and in experiment [2] was “binds” each time.
“NR2E3 p.R385P (from UniProt Q9Y5X4-1 1-410)”: the binding result in experiment [1] and in experiment [2] was “binds” in each case.
For the substance “NR2E3 p.V232I (from UniProt Q9Y5X4-1 1-410)”, the binding entry in experiment [1] and in experiment [2] was “binds” in each case.
Regarding “NR2E3 p.V302I (from UniProt Q9Y5X4-1 1-410)”, the binding result in experiment [1] and in experiment [2] was “binds” throughout.
On to “NR2E3 p.W234S (from UniProt Q9Y5X4-1 1-410)”, for which the binding entry in experiment [1] and in experiment [2] was “binds” throughout.
Turning to “photoreceptor-specific nuclear receptor NR2E3 (nuclear receptor subfamily 2 group E member 3), wild type (from UniProt Q9Y5X4-1 1-410)”, the binding entry in experiment [1] and in experiment [2] was “binds” each time.
